PubChem BioAssay AID720505, Drosophila RNAi Screening Center | 2013

Aim: 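Genes needed for store-operated calcium entry in fly cells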 (primary screen)
Cells: Drosophila S2R+ cells
Knock-down reagent: long dsRNA against Drosophila genes
Challenge: thapsigargin (2 µM) in calcium-free buffer to empty internal stores, then 2 mM calcium added back
Read-out: 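Fluo-4 signal in 384-well plates read on a FLIPR after thapsigargin (2 µM, calcium-free) store depletion and 2 mM calcium add-back; unnormalised mean endpoint per well; screen run twice, selected wells retested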
Direction: calcium signal and retest calcium signal: higher = more calcium entry after store depletion
Active means: 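Knock-downs counted as hits when calcium entry dropped relative to STIM1 positive and Rho1 negative controls present on each plate; roughly 1500 genes called, with reductions of differing size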
Calls: active = called as lowering calcium entry; inactive = not called
In all, the deposit lists about 20,000 reagents; shown is an unselected part of those with a known target gene and a result. Of all reagents, about 2,100 (10%) were called active. 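Raw plate signals without normalisation; calls rest on control-based scores that were not deposited; replicate 2 separates called from uncalled poorly.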 Unmarked entries are inactive. Names joined by + are all predicted targets of the reagent. Not stated in the record: the amount of reagent, the time to read-out.

dati [DRSC17128]
- calcium signal, replicate 1: 143
- calcium signal, replicate 2: 98.7

dati [DRSC17140]
- calcium signal, replicate 1: 78.7
- calcium signal, replicate 2: 160

dati [DRSC17153]
- calcium signal, replicate 1: 95.3
- calcium signal, replicate 2: 122

CG2871 [DRSC18230]
- calcium signal, replicate 1: 216
- calcium signal, replicate 2: 127
- retest calcium signal, replicate 1: 10641
- retest calcium signal, replicate 2: 160

CG2871 [DRSC21719]
- calcium signal, replicate 1: 114
- calcium signal, replicate 2: 91.8

CG10804 [DRSC17764]
- calcium signal, replicate 1: 122
- calcium signal, replicate 2: 172

CG4496 [DRSC02753]
- calcium signal, replicate 1: 138
- calcium signal, replicate 2: 105

CG42712 (retired record) [DRSC01038]
- calcium signal, replicate 1: 191
- calcium signal, replicate 2: 131

CG6592 [DRSC10669]
- calcium signal, replicate 1: 59.4
- calcium signal, replicate 2: 62.1

otu [DRSC18811]
- calcium signal, replicate 1: 236
- calcium signal, replicate 2: 123

zpg [DRSC09702]
- calcium signal, replicate 1: 92.7
- calcium signal, replicate 2: 67.4

His4:CG33883 + His4:CG33889 + His4:CG33899 + 20 more [DRSC21268]
- calcium signal, replicate 1: 56.3 (active)
- calcium signal, replicate 2: 139

2 entries from above, ordered by “calcium signal, replicate 2”, lowest first.
zpg [DRSC09702]
- calcium signal, replicate 1: 92.7
- calcium signal, replicate 2: 67.4

otu [DRSC18811]
- calcium signal, replicate 1: 236
- calcium signal, replicate 2: 123
